Results deposited as PubChem BioAssay AID1224828 (NIAID, 2016)
Here is a random part of about 17,000 reagents. Of all reagents, 762 (4.5%) are marked active. 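Active calls include both raised and lowered p65 entry, mostly lowered; wells with fewer than 50 cells lack a z-score.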 The raw values are shown without normalisation.

Aim: 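Find genes required for NF-kappaB p65 moving into the nucleus after LPS in mouse macrophages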 (primary screen)
System: mouse RAW264.7 G9 macrophage reporter cells (GFP-p65, Tnf promoter-mCherry)
Reagents: siRNA pool against mouse genes, 100 nM
Time to read-out: 2 days siRNA transfection, then 40 min LPS before fixation
Treatment: LPS (Salmonella minnesota R595) at 10 ng/ml
Measurement: 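Imaged p65 nuclear translocation ratio, normalised to the plate median, converted to robust z-scores and averaged across two replicates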
Scale: p65 translocation robust z-score: higher = more nuclear NF-kappaB p65 after LPS than the plate median; nuclear/cytoplasmic p65 ratio: higher = more nuclear NF-kappaB p65
Rule for the call: 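Active if robust z is above 3.3 (negative regulators) or below -1.56, the Tlr4 control median (positive regulators); activity score 50 or more; control wells not called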
Calls: active = hit (p65 shift raised or lowered); inactive = no clear change

target,p65 translocation robust z-score,"nuclear/cytoplasmic p65 ratio, rep 1","nuclear/cytoplasmic p65 ratio, rep 2",low cell count flag,outcome
Mark4,0.45,1.72,1.46,enough cells to score,inactive
Tcl1b1,,0,1.01,fewer than 50 cells per well; well left out of scoring,inactive
Ca15,-1.38,1.41,1.53,enough cells to score,inactive
Il11,1.68,1.58,1.66,enough cells to score,inactive
Ddb2,1.86,1.74,1.61,enough cells to score,inactive
Ninj2,1.04,1.84,1.71,enough cells to score,inactive
Egfr,1.84,1.98,1.56,enough cells to score,inactive
L3hypdh,1.17,1.55,1.41,enough cells to score,inactive
Prkcd,-0.53,1.53,1.36,enough cells to score,inactive
Or6c202,-0.8,1.33,1.08,enough cells to score,inactive
Rem1,0.05,1.65,1.4,enough cells to score,inactive
Impdh1,0.43,1.48,1.49,enough cells to score,inactive
Pnn,-0.88,1.35,1.32,enough cells to score,inactive
Chst7,-0.44,1.57,1.66,enough cells to score,inactive
Kcnn4,,1.24,1.19,fewer than 50 cells per well; well left out of scoring,inactive

2 neighbouring reagents already listed, for reference:
target,p65 translocation robust z-score,"nuclear/cytoplasmic p65 ratio, rep 1","nuclear/cytoplasmic p65 ratio, rep 2",low cell count flag,outcome
Ninj2,1.04,1.84,1.71,enough cells to score,inactive
Egfr,1.84,1.98,1.56,enough cells to score,inactive

Additional records follow.
target,p65 translocation robust z-score,"nuclear/cytoplasmic p65 ratio, rep 1","nuclear/cytoplasmic p65 ratio, rep 2",low cell count flag,outcome
Polr3b,0.1,1.36,1.23,enough cells to score,inactive
Cbx3,0.47,1.33,1.44,enough cells to score,inactive
Cdk16,-0.58,1.67,1.24,enough cells to score,inactive
Plxnc1,-1.29,1.31,1.25,enough cells to score,inactive
Nkx1-2,0.03,1.48,1.74,enough cells to score,inactive
Arid5b,,1.33,1.4,fewer than 50 cells per well; well left out of scoring,inactive
Zfp445,-1.67,1.23,1.4,enough cells to score,active
Ms4a19,0.81,1.46,1.56,enough cells to score,inactive
Map1a,-1.52,1.24,1.16,enough cells to score,inactive
